Results: article PMC5999948
Results are given in words; binding and its absence hold for the method and conditions named. In cells and extracts the contact can be indirect. Some binding calls cover weakened binding; strength is not graded here.

By UniProt entry, the sequences of proteins in these tests, tags left out. Where a name states a change or a piece, a line headed by the entry shows the natural chain unless it says otherwise.
UniProt Q99MQ3: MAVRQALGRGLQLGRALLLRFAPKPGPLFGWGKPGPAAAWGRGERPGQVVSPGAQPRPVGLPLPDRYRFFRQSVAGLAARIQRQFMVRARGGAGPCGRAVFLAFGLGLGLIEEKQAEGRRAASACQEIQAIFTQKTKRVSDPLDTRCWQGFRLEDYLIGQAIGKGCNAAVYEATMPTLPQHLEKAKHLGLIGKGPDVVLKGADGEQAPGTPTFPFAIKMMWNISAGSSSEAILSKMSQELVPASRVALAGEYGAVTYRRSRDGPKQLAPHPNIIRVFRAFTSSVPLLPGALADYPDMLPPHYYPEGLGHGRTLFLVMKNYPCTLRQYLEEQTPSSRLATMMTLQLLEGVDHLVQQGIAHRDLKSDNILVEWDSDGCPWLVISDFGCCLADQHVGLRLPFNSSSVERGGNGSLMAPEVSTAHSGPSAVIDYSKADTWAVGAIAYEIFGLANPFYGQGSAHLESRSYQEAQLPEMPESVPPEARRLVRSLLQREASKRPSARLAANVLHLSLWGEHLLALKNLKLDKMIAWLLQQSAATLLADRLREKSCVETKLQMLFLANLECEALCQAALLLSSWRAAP

Target: T1, Parkin (mouse (endogenous in SN4741)) (UniProt Q9WVS6)
T1 sequence: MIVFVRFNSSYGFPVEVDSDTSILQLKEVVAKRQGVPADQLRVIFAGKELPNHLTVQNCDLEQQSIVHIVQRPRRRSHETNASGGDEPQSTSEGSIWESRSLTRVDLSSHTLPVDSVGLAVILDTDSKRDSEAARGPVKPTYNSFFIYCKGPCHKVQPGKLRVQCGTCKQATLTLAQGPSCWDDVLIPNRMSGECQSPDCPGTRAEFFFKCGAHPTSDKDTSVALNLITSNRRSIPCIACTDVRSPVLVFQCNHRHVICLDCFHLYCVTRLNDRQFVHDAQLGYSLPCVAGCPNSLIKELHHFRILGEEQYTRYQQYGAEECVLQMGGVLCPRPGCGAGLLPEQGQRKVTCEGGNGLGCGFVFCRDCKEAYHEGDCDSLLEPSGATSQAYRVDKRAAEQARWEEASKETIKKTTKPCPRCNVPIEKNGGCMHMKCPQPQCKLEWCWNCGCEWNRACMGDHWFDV
Test: co-IP; SN4741 cell lysates (empty vector or α-synuclein A53T, DMSO or SB203580 10 μM 24 h); IP with anti-Parkin, immunoblot for PINK1; IgG control; lysis in 20 mM Tris-HCl pH 7.4, 150 mM NaCl, 1% Triton X-100; beads washed with RIPA

binding: binds
Substance: PINK1 (from UniProt Q99MQ3 78-580)
